From patent publication US20230357292A1, “MULTI-COORDINATE GOLD-PHOSPHINE COMPOUNDS AND METHOD OF USE” (University of Kentucky Research Foundation, priority 2020, published 2023) come the findings set out here.

The test system of the series is OVCAR8 cells. As to conditions: OVCAR8, 15 h, GF-AAS.

Regarding `[Cl-].[Cl][Au-]1([c]2ccccc2Cc2ccccn2)[P+](c2ccccc2)(c2ccccc2)c2ccccc2[P+]1(c1ccccc1)c1ccccc1` [AuPhos-84, (2-benzylpyridine)[1,2-Bis(diphenylphosphino)benzene]gold(III) Dichloride], the whole-cell uptake result was “appreciable amount of compound was detected in cells”.
Turning to `[Cl-].[Cl][Au-]1([c]2ccccc2-c2ccccn2)[P+](c2ccccc2)(c2ccccc2)c2ccccc2[P+]1(c1ccccc1)c1ccccc1` [AuPhos-89, (2-phenylpyridine)[1,2-Bis(diphenylphosphino)benzene]gold(III) Dichloride], the whole-cell uptake result is “appreciable amount of compound was detected in cells”.
